Assay: Nanopore double layer potential and ionic current signals of small molecule analytes

O=C(O)CC(O)(CC(=O)O)C(=O)O [Citric Acid]
Ionic current signal, relationship to pH (1 M NaCl case, p<0.05): inverse relationship to pH | Ionic current signal (Ips), trend (analyte 10 nM in NaF, Example 2): smaller negative magnitudes | Double layer potential signal, relative magnitude (analyte 10^−8 M in NaF 10^−7 to 1 M, Example 1): larger negative magnitude | Double layer potential signal, dependence on pH (pH 2.8, 3.9, 5.5 or 8.5, linear regression p>0.2): not dependent on pH
